{"source": "ChEMBL document CHEMBL1921774", "about": "“Evaluation of 18F-labeled benzodioxine piperazine-based dopamine D4 receptor ligands: lipophilicity as a determinate of nonspecific binding” (J Med Chem, 2011)", "key": {"[1]": {"organism": "Homo sapiens", "assay": "Selectivity ratio of Ki for human dopamine D3 receptor to Ki for human dopamine D4.4 receptor"}, "[2]": {"organism": "Homo sapiens", "assay": "Selectivity ratio of Ki for human dopamine D2long receptor to Ki for human dopamine D4.4 receptor"}, "[3]": {"assay": "Octanol-buffer partition coefficient, log P of the compound at pH 7.4 by shake flask method", "conditions": "octanol/water"}, "[4]": {"organism": "Homo sapiens", "assay": "Selectivity ratio of Ki for human dopamine D2short receptor to Ki for human dopamine D4.4 receptor"}, "[5]": {"assay": "Lipophilicity, log P of the compound at pH 7.4 by HPLC method", "conditions": "buffer"}}, "data": [{"smiles": "Fc1ccc(CN2CCN(c3ccc4c(c3)OCCO4)CC2)cn1", "values": [{"measurement": "Ratio Ki", "setting": "[1]", "result": 1100}, {"measurement": "Ratio Ki", "setting": "[2]", "result": 2000}, {"measurement": "logD", "setting": "[3]", "result": 1.81}, {"measurement": "Ratio Ki", "setting": "[4]", "result": 3000}, {"measurement": "logP", "setting": "[5]", "result": 2.02}]}]}
